Reference: PMC6307745

By UniProt entry, the sequences of proteins in these tests, tags left out.
UniProt Q03135: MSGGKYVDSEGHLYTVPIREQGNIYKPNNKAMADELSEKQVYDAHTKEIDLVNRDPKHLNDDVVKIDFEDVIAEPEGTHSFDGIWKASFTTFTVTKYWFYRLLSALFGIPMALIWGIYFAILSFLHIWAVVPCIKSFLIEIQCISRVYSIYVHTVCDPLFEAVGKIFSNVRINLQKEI

Assays:
cavin1-myc-BirA* (rat) [1] = biological target: T1, cavin1-myc-BirA* (rat) (UniProt P85125); assay: proximity labelling; BioID in HeLa cells transfected with cavin1-myc-BirA* and incubated with exogenous biotin; biotinylated proteins shown on blots with streptavidin-HRP, or precipitated with immobilised streptavidin and blotted with anti-caveolin1
T1 sequence: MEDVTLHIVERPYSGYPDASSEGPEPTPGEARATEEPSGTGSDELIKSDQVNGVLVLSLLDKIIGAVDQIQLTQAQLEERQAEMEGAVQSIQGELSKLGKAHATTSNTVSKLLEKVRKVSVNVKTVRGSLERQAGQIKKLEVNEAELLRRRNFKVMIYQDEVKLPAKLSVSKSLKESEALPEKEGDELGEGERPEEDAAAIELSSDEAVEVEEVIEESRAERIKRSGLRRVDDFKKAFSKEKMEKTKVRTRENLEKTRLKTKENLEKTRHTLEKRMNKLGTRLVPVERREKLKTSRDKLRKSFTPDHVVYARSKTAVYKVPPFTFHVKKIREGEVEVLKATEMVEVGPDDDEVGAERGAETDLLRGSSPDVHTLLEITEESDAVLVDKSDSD

cavin1-myc-BirA* (rat) [2] = biological target: T1, cavin1-myc-BirA* (rat); assay: proximity labelling; BioID in HeLa cells, 50 uM biotin for 16-20 hours, lysis in 1% Triton X-100, 1% octyl-glucoside, capture on streptavidin beads, mass spectrometry; 7 experiments, enrichment over negative control BirA* constructs

binding (cavin1-myc-BirA* (rat) [1]): binds | binding (cavin1-myc-BirA* (rat) [2]): binds
Substance: caveolin1 (endogenous, HeLa) (from UniProt Q03135 1-178)

These are yes or no findings as the source states them, for the method shown. Binding seen in cells or lysates may run through a third protein. These calls come from enrichment with a bait or labelling near it, and not all partners need be listed. Tags and fused reporters may be left off the sequences shown.
